Results are given in words; binding and its absence hold for the method and conditions named. Binding can be weak; no strength is given.

In the test the target is HLA-A*02:01 (human). As to the kind of experiment: UV-ligand exchange + anti-b2m ELISA; peptide exchange yield grade (+ >=10%, ++ >=20%, +++ >=50%, ++++ >=75%). In general terms: ELISA stands for enzyme-linked immunosorbent assay.
Turning to KLMDYIDEL [… (SEQ ID NO: 162)], the binding entry is reported as “binds”.
The result for ALIKQLFEA [… (SEQ ID NO: 1)] reads “binds”; that for LLLEVVKQV [… (SEQ ID NO: 145)], “binds”.
Consider ILFSEDSTKLFV [… (SEQ ID NO: 153)], for which the binding result is “binds”.
The result for RLAELTVDEFLA [… (SEQ ID NO: 127)] reads “binds”.
The result for KLLAVIHEL [… (SEQ ID NO: 152)] reads “binds”; that for QLTEIKPLL [… (SEQ ID NO: 137)], “binds”.
The result for LLGELPRLLLL [… (SEQ ID NO: 110)] reads “binds”; that for SLAPNIISQL [… (SEQ ID NO: 121)], “binds”; that for RMYNKIFAI [… (SEQ ID NO: 10)], “binds”.
Take MLDDRAYLV [… (SEQ ID NO: 128)]: the binding entry is “binds”.
For the molecule RLLGEEVVRV [… (SEQ ID NO: 155)], the binding entry is given as “binds”.
TLTELRAFL [… (SEQ ID NO: 147)]: the binding entry is recorded as “binds”.
Regarding VLYEGVDEV [… (SEQ ID NO: 120)], the binding result is recorded as “binds”.
To ILLTIKDDTIYL [… (SEQ ID NO: 104)] belongs “binds”; to RLLENMTEVV [… (SEQ ID NO: 148)], “binds”.
On to YALDLSTFL [… (SEQ ID NO: 105)], for which the binding result is given as “binds”.
ILYDLQQNL [… (SEQ ID NO: 113)]: the binding entry is reported as “binds”.
Turning to KLQEEIPVL [… (SEQ ID NO: 135)], the binding result is “binds”.
Take ALLGGGPYML [… (SEQ ID NO: 107)]: the binding result is “binds”.
To KLGDFGLLVEL [… (SEQ ID NO: 125)] belongs “binds”; to GLLDPSVFHV [… (SEQ ID NO: 158)], “binds”; to ALDGDQMEL [… (SEQ ID NO: 109)], “binds”.
The result for VLVDDDGIKVV [… (SEQ ID NO: 159)] reads “binds”; that for LVYQFVHPI [… (SEQ ID NO: 116)], “binds”.
On to SAQGSDVSLTACKV [… (SEQ ID NO: 151)], for which the binding entry is “binds”.
Take LLNEILEQV [… (SEQ ID NO: 140)]: the binding entry is “binds”.
As to LLADLKTMV [… (SEQ ID NO: 118)], the binding entry is “binds”.
With GVAGGSILKGV [… (SEQ ID NO: 134)], the binding result is listed as “binds”.
To KQFEGTVEI [… (SEQ ID NO: 138)] belongs “binds”.
With ALLNAILHSA [… (SEQ ID NO: 132)], the binding entry was “binds”.
The result for SLFDVSHML [… (SEQ ID NO: 115)] reads “binds”; that for KLGQVLIYL [… (SEQ ID NO: 112)], “binds”; that for VLIDVLKEL [… (SEQ ID NO: 129)], “binds”.
Turning to KLFDIFSQQV [… (SEQ ID NO: 136)], the binding entry is reported as “binds”.
To YQFDKVGILTL [… (SEQ ID NO: 149)] belongs “binds”.
Consider RVLPPSALQSV [… (SEQ ID NO: 124)], for which the binding result is given as “binds”.
On to FLKNELDNV [… (SEQ ID NO: 161)], for which the binding result was “binds”.
The result for AVIEHLERL [… (SEQ ID NO: 141)] reads “binds”.
RLLHEVQEL [… (SEQ ID NO: 163)]: the binding entry is given as “binds”.
To KLPSETIFVGC [… (SEQ ID NO: 154)] belongs “binds”.
To ALVQGILERV [… (SEQ ID NO: 12)] belongs “binds”.
Take KMLDEILLQL [… (SEQ ID NO: 164)]: the binding result was “binds”.
As to VLVDQSWVL [… (SEQ ID NO: 16)], the binding result is “binds”.
For the molecule KLSDVWKEL [… (SEQ ID NO: 143)], the binding entry was “binds”.
For GLGGSQLIDTHL [… (SEQ ID NO: 130)], the binding result is on record as “binds”.
The result for GLLEARGILGL [… (SEQ ID NO: 166)] reads “binds”.
The result for SLIERDLKL [… (SEQ ID NO: 157)] reads “binds”; that for ALSDETWGL [… (SEQ ID NO: 146)], “binds”.
In the case of KLLEFDQLQL [… (SEQ ID NO: 160)], the binding result was “binds”.
To ILYQTVTGL [… (SEQ ID NO: 119)] belongs “binds”; to KLLDVVHPA [… (SEQ ID NO: 131)], “binds”; to TAVGHALVL [… (SEQ ID NO: 114)], “binds”.
The result for SLMMTIINL [… (SEQ ID NO: 156)] reads “binds”; that for FLDKPEDVLL [… (SEQ ID NO: 14)], “binds”; that for SLVQRVETI [… (SEQ ID NO: 142)], “binds”.
In the case of YLFEKTFNM [… (SEQ ID NO: 11)], the binding entry is recorded as “binds”.
The result for SLAELVPGVGGI [… (SEQ ID NO: 108)] reads “binds”; that for RTFEKIEEV [… (SEQ ID NO: 133)], “binds”; that for KTLERSYLL [… (SEQ ID NO: 123)], “binds”.
The result for SLMGMVLKL [… (SEQ ID NO: 122)] reads “binds”; that for VLLNEILEQV [… (SEQ ID NO: 139)], “binds”; that for RLLDFPEAMVL [… (SEQ ID NO: 165)], “binds”.
Turning to SVIDHIHLISV [… (SEQ ID NO: 167)], the binding result is reported as “binds”.
The result for TLQPVDNSTISL [… (SEQ ID NO: 117)] reads “binds”; that for LQLDKEFQL [… (SEQ ID NO: 15)], “binds”; that for SLISEKILL [… (SEQ ID NO: 106)], “binds”.
The result for RLADLEALKV [… (SEQ ID NO: 150)] reads “binds”; that for LLNDRIWLA [… (SEQ ID NO: 144)], “binds”.

Source of the values: US20230203114A1.
